Reference: PubChem BioAssay AID1487 (National Center for Advancing Translational Sciences (NCATS), 2009)
This is one part of the list. The main result of the screen is listed elsewhere. These columns were measured beside it and carry no call. The list favours compounds with an active or inconclusive main result. Words in brackets tell the shape of the fitted curve; partial curves, single points and poor fits give uncertain potencies.

Test: qHTS Assay for Modulators of Lamin A Splicing
Details: HeLa LMNA splicing GFP/RFP minigene ratio, 48 h
How it was run: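 S3 HeLa stable clones carrying a lamin A-EGFP splicing minigene plus DsRed2 were seeded at 600 cells/well in Opti-MEM with 2% FBS, pin-dosed and incubated 48 h at 37°C. Acumen cytometry (488 nm) gave the GFP/RFP total-intensity ratio.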

[1] = measured here: GFP splicing reporter channel
[2] = measured here: RFP viability control channel

In the case of `CC1=Nc2ccccc2/C1=C\c1sc(Nc2ccc(C)cc2)nc1O`, the AC50 [1] is reported as 0.891 µM [rising, full curve] and the AC50 [2] is reported as 0.891 µM [rising, full curve].

With `COc1ccc(-c2noc(N3CCC(C(=O)N4CCN(c5ccccn5)CC4)CC3)n2)cc1` the AC50 [1] was 0.00891 µM [rising, full curve, poor fit] and the AC50 [2] was 3.16 µM [rising, full curve].

With `CCC(=O)n1nc(-c2cccnc2)nc1NCc1ccc(F)cc1` the AC50 [1] was 8.91 µM [falling, partial curve] and the AC50 [2] was 3.98 µM [falling, partial curve, poor fit].

In the case of `CCc1ccc(NC(=O)Cn2ccn(Cc3ccccc3OC)c(=O)c2=O)cc1`, the AC50 [1] is reported as 6.31 µM [rising, partial curve] and the AC50 [2] is reported as 3.98 µM [rising, full curve, poor fit].

With `CCN(CC)CCCN(Cc1cc2cc3c(cc2[nH]c1=O)OCCO3)C(=O)Nc1ccc(F)cc1` the AC50 [2] was 11.2 µM [rising, single point].

With `CC(C)(C)OC(=O)N1CCN(c2ccc([N+](=O)[O-])cc2)CC1` the AC50 [2] was 10 µM [rising, single point].

For `CCc1ccc(NC(=O)N(Cc2ccco2)C(C)c2cccs2)cc1` (configuration not stated), the AC50 [1] was 0.00562 µM [falling, full curve, poor fit].

For `CCn1nc(C(=O)Nc2cccc(C(F)(F)F)c2)c(Cl)c1Cl`, the AC50 [1] was 0.0501 µM [rising, full curve].

With `CCCCCOc1ccc(C2NC(=O)NC2=O)cc1` (configuration not stated) the AC50 [2] was 5.62 µM [rising, full curve].

In the case of `O=C(Cc1ccc(Cl)cc1)Nc1nnc2n1CCS2`, the AC50 [2] is reported as 5.62 µM [rising, partial curve, poor fit].

For `Cc1ccc(-n2nc(C)c3c(C)cc(=O)n(CC(=O)N4CCCc5ccccc54)c32)cc1`, the AC50 [1] was 0.0562 µM [falling, full curve] and the AC50 [2] was 0.00708 µM [falling, full curve, poor fit].

For `Cc1cccc(NC(=O)c2ccc(C(=O)Nc3cccc(C)c3)nc2)c1`, the AC50 [2] was 14.1 µM [rising, single point].

In the case of `CN(Cc1ccccc1)Cc1c[nH]c2ccccc12`, the AC50 [2] is reported as 14.1 µM [rising, single point].

In the case of `CC1(c2ccc3ccccc3c2)NC(=O)N(CC(=O)Nc2cccc(S(=O)(=O)N3CCOCC3)c2)C1=O` (configuration not stated), the AC50 [1] is reported as 20 µM [rising, single point] and the AC50 [2] is reported as 31.6 µM [rising, single point].

With `CCOC(=O)c1c(C)nc2c(c1C)/C(=N/O)CC(C)(C)C2` the AC50 [2] was 20 µM [rising, single point].

In the case of `Cc1cc(C)c(NS(=O)(=O)c2ccc(-c3cnc(C4CC4)o3)cc2)c(C)c1`, the AC50 [1] is reported as 17.8 µM [falling, single point] and the AC50 [2] is reported as 0.0891 µM [rising, full curve].

In the case of `O=C(Cc1ccccc1[N+](=O)[O-])Nc1ccccc1C(=O)N1CCCC1`, the AC50 [1] is reported as 5.62 µM [rising, single point].

In the case of `C#C[C@@]1(O)CC[C@@H]2[C@@H]3CCC4=CC(=O)CC[C@@H]4[C@H]3CC[C@]21CC`, the AC50 [1] is reported as 8.91 µM [falling, partial curve] and the AC50 [2] is reported as 7.94 µM [falling, partial curve].

For `COc1ccc(C(=O)c2ccc(CC#N)s2)cc1`, the AC50 [2] was 12.6 µM [rising, partial curve].

With `O=C(COc1ccc2ccccc2c1)N1CCN(c2ccccc2O)CC1` the AC50 [2] was 20 µM [rising, single point].

With `OC(COc1ccc2c(c1)OCO2)CN1CCN(c2ccccc2)CC1` (configuration not stated) the AC50 [1] was 0.316 µM [falling, full curve, poor fit].

In the case of `COc1ccccc1OCC(=O)NNC(=S)NC(=O)c1ccco1`, the AC50 [2] is reported as 35.5 µM [rising, single point].

With `COc1cc(NC(=S)NC(=O)c2ccccc2C)ccc1NC(=O)c1cccs1` the AC50 [2] was 2 µM [rising, full curve, poor fit].

With `COc1ccc(CCNC(=O)c2cc(S(=O)(=O)N(C)c3ccccc3)ccc2Cl)cc1` the AC50 [1] was 11.2 µM [rising, partial curve] and the AC50 [2] was 22.4 µM [rising, single point].

For `O=c1c(-c2nnc(SCc3ccc(Cl)cc3Cl)o2)cccn1Cc1ccccc1`, the AC50 [1] was 25.1 µM [falling, partial curve, poor fit] and the AC50 [2] was 14.1 µM [falling, partial curve].

With `CCCSc1nnc(Sc2nnnn2-c2ccccc2)s1` the AC50 [1] was 31.6 µM [falling, single point] and the AC50 [2] was 35.5 µM [falling, single point].

With `CCC(=Nc1ccc(Cc2ccncc2)cc1)c1c(O)n(C)c(=O)n(C)c1=O` the AC50 [1] was 0.0112 µM [falling, full curve, poor fit].

For `O=C(NCCCN1CCCC1=O)c1ccc2c(=O)n(-c3ccc(F)cc3)c(=S)[nH]c2c1`, the AC50 [1] was 1.26 µM [rising, full curve] and the AC50 [2] was 1.41 µM [rising, full curve, poor fit].

In the case of `Cn1nc(CC(=O)N2CCN(c3ccccc3)CC2)c2ccccc2c1=O`, the AC50 [2] is reported as 11.2 µM [rising, single point].

For `Cc1ccc(NC(=O)C(=O)NCC(c2cccnc2)N2CCOCC2)cc1Cl` (configuration not stated), the AC50 [1] was 15.8 µM [falling, partial curve] and the AC50 [2] was 14.1 µM [falling, partial curve].

With `Fc1cccc(C2CCCCN2Cc2nc(C3CC3)no2)c1` (configuration not stated) the AC50 [2] was 35.5 µM [falling, single point].

With `O=C(CSc1ncnc2c1cnn2-c1ccccc1Cl)N1CCN(C(=O)c2ccco2)CC1` the AC50 [2] was 25.1 µM [rising, single point].

For `COc1ccc(C(=O)Nc2nc3c(s2)CCCC3)cc1S(=O)(=O)N1CCCc2ccccc21`, the AC50 [1] was 3.98 µM [rising, full curve] and the AC50 [2] was 5.62 µM [rising, full curve].

For `CSC1=C(C#N)C2(CCCC2)C(C#N)=C(N)N1`, the AC50 [1] was 14.1 µM [rising, single point].

In the case of `CCCCOc1ccc(C(C)NC(=O)c2cccc(Nc3nc4ccccc4n4nnnc34)c2)cc1` (configuration not stated), the AC50 [2] is reported as 0.794 µM [falling, full curve].

For `CCc1cccc(C)c1NC(=O)CCCSc1nc2ccccc2s1`, the AC50 [1] was 11.2 µM [rising, partial curve] and the AC50 [2] was 17.8 µM [rising, single point].

In the case of `COc1ccccc1CNc1nc(-c2ccc(C(=O)N(C)C)cc2)nc2ccccc12`, the AC50 [1] is reported as 22.4 µM [falling, partial curve] and the AC50 [2] is reported as 22.4 µM [falling, single point].

In the case of `COc1cccc(NS(=O)(=O)c2cc(C)sc2C)c1`, the AC50 [2] is reported as 35.5 µM [rising, single point].

With `COc1ccc(C(=O)COC(=O)/C=C/c2ccc(S(=O)(=O)Nc3cccc(S(N)(=O)=O)c3)cc2)cc1` the AC50 [1] was 5.62 µM [rising, single point].

In the case of `COC(=O)[C@@]1(Cc2ccc(F)cc2)[C@H]2c3cc(C(=O)N4CCCC4)n(CCc4ccc(O)c(O)c4)c3C[C@H]2CN1C(=O)c1ccccc1`, the AC50 [1] is reported as 7.94 µM [rising, partial curve] and the AC50 [2] is reported as 14.1 µM [rising, partial curve].

In the case of `Cc1cccc2sc(N(CCCN(C)C)C(=O)c3ccco3)nc12`, the AC50 [1] is reported as 31.6 µM [falling, partial curve, poor fit].

In the case of `CN(C)c1cc2c(cc1NS(=O)(=O)c1ccccc1)n(C)c(=O)n2C`, the AC50 [1] is reported as 0.02 µM [rising, full curve, poor fit].

In the case of `O=C(C1CC1)N1CCc2cc(Br)cc(S(=O)(=O)NC3CCCCC3)c21`, the AC50 [2] is reported as 3.16 µM [rising, partial curve, poor fit].

For `COCCn1c(C)cc(C(=O)CSc2nc(C)cc(C)c2C#N)c1C`, the AC50 [2] was 15.8 µM [rising, single point].

In the case of `CN1/C(=C\C(=O)Nc2ccc(Cl)cc2)C(C)(C)c2ccccc21`, the AC50 [2] is reported as 15.8 µM [rising, single point].

For `CCOC(=O)c1ccc(NC(=O)CSc2nnc(-c3ccncc3)n2-c2ccccc2)cc1`, the AC50 [1] was 0.0562 µM [falling, full curve, poor fit].

For `COc1cccc(-c2nc3ccc([N+](=O)[O-])cc3o2)c1`, the AC50 [1] was 0.398 µM [rising, full curve] and the AC50 [2] was 0.631 µM [rising, full curve, poor fit].

For `CCN(C(=O)CSc1nc2ccccc2n1Cc1ccccc1C#N)c1ccccc1`, the AC50 [1] was 0.141 µM [falling, partial curve].

For `O=C(Nc1cccc(C(F)(F)F)c1)c1cccnc1NCCc1ccccc1`, the AC50 [1] was 14.1 µM [rising, single point] and the AC50 [2] was 12.6 µM [rising, partial curve].

For `Cc1ccc2c(C)c(C(=O)NCC(c3ccc(Cl)cc3)N3CCOCC3)oc2c1` (configuration not stated), the AC50 [1] was 3.16 µM [rising, partial curve, poor fit] and the AC50 [2] was 20 µM [rising, partial curve, poor fit].

For `O=C(N/C=N/OCc1ccc(Cl)cc1Cl)NOCc1c(Cl)cccc1Cl`, the AC50 [2] was 0.891 µM [rising, single point].

In the case of `O=C(Cc1cn(Cc2cccc(Cl)c2)c2ccccc12)N1CCCC1`, the AC50 [1] is reported as 12.6 µM [rising, partial curve] and the AC50 [2] is reported as 35.5 µM [rising, partial curve].

In the case of `CNC(=S)N1CCn2cccc2C1c1cc(OC)c(OC)c(OC)c1` (configuration not stated), the AC50 [1] is reported as 1.26 µM [rising, full curve, poor fit].

For `Cc1ccc(N2C(=O)C3CCC(C)(C2=O)C3(C)C)cc1C` (configuration not stated), the AC50 [2] was 0.02 µM [falling, full curve, poor fit].

With `CCOC(=O)N1CCC(Nc2cc(C)nc3c(-c4ccccc4OC)c(C)nn23)CC1` the AC50 [1] was 28.2 µM [rising, partial curve, poor fit] and the AC50 [2] was 35.5 µM [rising, partial curve].
